Data: patent US11897862B2 (Gilead Sciences, Inc., priority 2022, dated 2024)
Some results were stated once for a whole list of compounds, not compound by compound. Some compounds share one range, which may span the group rather than tell each member.

The chains behind the UniProt entries cited, without tags or fusion partners. Where a name states a change or a piece, a line headed by the entry shows the natural chain unless it says otherwise. Residues count along the entry.
UniProt Q96SW2: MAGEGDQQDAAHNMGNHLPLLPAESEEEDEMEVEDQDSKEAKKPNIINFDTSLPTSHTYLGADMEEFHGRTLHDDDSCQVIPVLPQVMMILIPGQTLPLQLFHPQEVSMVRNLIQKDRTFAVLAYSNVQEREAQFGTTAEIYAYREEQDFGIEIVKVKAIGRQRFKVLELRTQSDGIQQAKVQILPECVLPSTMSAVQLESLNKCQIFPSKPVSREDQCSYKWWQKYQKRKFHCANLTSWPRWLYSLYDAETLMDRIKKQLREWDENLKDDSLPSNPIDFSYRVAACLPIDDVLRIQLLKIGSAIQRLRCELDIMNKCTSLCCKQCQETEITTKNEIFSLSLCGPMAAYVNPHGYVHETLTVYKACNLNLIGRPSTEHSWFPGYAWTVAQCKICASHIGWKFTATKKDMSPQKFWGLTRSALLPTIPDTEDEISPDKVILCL
UniProt Q9UKS7, 1-500 isoform Q9UKS7-2: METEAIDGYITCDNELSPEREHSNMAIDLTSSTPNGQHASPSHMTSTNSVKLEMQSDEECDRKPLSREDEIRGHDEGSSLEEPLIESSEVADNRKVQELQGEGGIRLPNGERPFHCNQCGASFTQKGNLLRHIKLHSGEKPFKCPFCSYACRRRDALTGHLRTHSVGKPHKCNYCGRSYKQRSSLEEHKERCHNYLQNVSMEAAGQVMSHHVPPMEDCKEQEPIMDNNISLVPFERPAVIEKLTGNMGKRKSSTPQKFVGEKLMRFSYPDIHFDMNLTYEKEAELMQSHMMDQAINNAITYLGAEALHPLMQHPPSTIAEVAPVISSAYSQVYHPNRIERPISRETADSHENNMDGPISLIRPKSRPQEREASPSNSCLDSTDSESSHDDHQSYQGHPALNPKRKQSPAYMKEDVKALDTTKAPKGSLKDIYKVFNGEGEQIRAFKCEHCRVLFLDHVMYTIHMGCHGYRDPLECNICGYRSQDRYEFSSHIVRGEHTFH

target: IKZF2 (Homo sapiens, UniProt Q96SW2+Q9UKS7); experiment: HEK293 HiBiT in vitro degradation of IKZF2; format: cell-based; parameters: expressed in transfected cells; details: Examples 2, 35, 46, 84 versus Reference Compounds B-3, B-2, B-4, B-1 respectively
Protocol: In vitro degradation of IKZF1, IKZF2, and SALL4 was measured using HiBiT protein tagging and detection technology (Promega).
HiBit technology was used to develop the quantitative assays to measure the cellular IKZFs level by tagging an 11 amino acid HiBit peptides […] to the protein of interest. Reporter plasmids were generated by fusing a linker sequence ([…]) followed by the HiBit tag at the C-terminus of IKZF1, IKZF2, and SALL4. The fusion fragments were subsequently cloned into pcDNA5 pcDNA™5/FRT/TO plasmids (Thermo Fisher, cat #V652020) downstream of the tetracycline operator. The resulting plasmids were co-transfected with pOG44 Flp-Recombinase Expression Vector (Thermo Fisher, cat #V600520) into Flp-In™ T-REx HEK293 line (Thermo Fisher, cat #R78077) and a stable cell pool was selected by adding 100 µg/ml of Hygromycin (Thermo Fisher, cat #10687010). The reporter cell enabled Tet-On inducible reporter expression from a single copy of the integrated gene.
On Day 1, Cells were grown to ˜80% confluency in tissue culture medium (DMEM Glutamax (Gibco10569), 10% Tet free FBS (Takara 631106), and PenStrep Glutamin (Gibco 10378)) in tissue culture flasks. Doxycycline was then added to a final concentration of […] to induce reporter expression at 37° C. overnight.
On Day 2, 125 nL of serially-diluted solution of testing compounds were dispensed into 384-well white solid assay plates via ECHO acoustic liquid handler. Cells were lifted by 0.25% Trypsin (Gibco 25200) then pelleted by centrifugation (Beckman Avanti J-E) at 500×g for 5 min. Cell pellets were resuspended in TC medium at the concentration of 3e5/mL and 25 μL of cell suspension were added into each well of compound-spotted plates. The plates were returned to a 37° C. incubator overnight (18-24 hr).
On Day 3, assay plates were removed from the tissue culture incubator and 25 μL of Nano-Glo lytic detection system (Promega, cat #N3030) was added to each well. Plates were incubated at r.t. for 3 min with shaking, and luminescence was read using an Envision reader (Perkin Elmer).
To assess the IKZF1, IKZF2, and SALL4 degrader potential of exemplified compounds of this disclosure and certain Reference Compounds EC50 and Dmax values were determined for the compounds of Examples 1 to 383 and Reference Compounds A-1, B-1, B-2, B-3, B-4, and C-1 in the HiBiT assays. Asterisks (*) indicate examples for which the data shown represents an average of n≥3.

Fold greater potency of IKZF2 (Helios) degradation than ether-linked Reference Compound, 3 to 10 fold:
CCN[C@H]1CCCC[C@@H]1Cc1ccc2c(c1)CN(C1CCC(=O)NC1=O)C2=O (stereo partly drawn) [Example 35, 3-(5-(((1R,2S)-2-(ethylamino)cyclohexyl)methyl)-1-oxoisoindolin-2-yl)piperidine-2,6-dione]
O=C1CCC(N2Cc3c(ccc(C[C@H]4CCCC[C@@H]4NC4CCC(F)(F)CC4)c3F)C2=O)C(=O)N1 (stereo partly drawn) [Example 84, 3-(5-(((1R,2S)-2-((4,4-difluorocyclohexyl)amino)cyclohexyl)methyl)-4-fluoro-1-oxoisoindolin-2-yl)piperidine-2,6-dione]
O=C1CCC(N2Cc3cc(C[C@H]4CCCC[C@@H]4NCc4ccccc4)ccc3C2=O)C(=O)N1 (stereo partly drawn) [Example 2, 3-(5-(((1R,2S)-2-(benzylamino)cyclohexyl)methyl)-1-oxoisoindolin-2-yl)piperidine-2,6-dione]
O=C1CCC(N2Cc3cc(C[C@H]4CCCC[C@@H]4NC4CCC(F)(F)CC4)ccc3C2=O)C(=O)N1 (stereo partly drawn) [Example 46, 3-(5-(((1R,2S)-2-((4,4-difluorocyclohexyl)amino)cyclohexyl)methyl)-1-oxoisoindolin-2-yl)piperidine-2,6-dione]
